Here are results for 14 substances from patent US6800434 (dated 2004).

*: point of attachment. OtBu = CC(C)(C)O*

A short description of the first series: general procedure: peptide synthesis; 2-chlorotrityl chloride resin (substrates). The note with it: coupling step.
On to “Ac-Glu(OtBu)-Glu(OtBu)-Val-Val-Pro-nVal(CHOH)-Gly-Oallyl”, for which the step yield worked out at 91%.

In turn, “Ac-Glu(OtBu)-Glu(OtBu)-Val-Val-Pro-nVal(CHOH)-OEt” displayed a step yield of 27.5%.

In turn, “Ac-Glu(OtBu)-Glu(OtBu)-Val-Val-Pro-nVal-(CHOH)-CONH2” returned a step yield of 68%.

Staying with this series, now noted: late stage modification step.
On to Ac-E(OtBu)E(OtBu)VV-OH, for which the step yield came to 93% yield.

In the case of “Ac-Glu(OtBu)-Glu(OtBu)-Val-Val-Pro-nVal(CHOH)-Carboxylic Acid”, the step yield stood at 82.2%.

With “Ac-Glu(OtBu)-Glu(OtBu)-Val-Val-Pro-nVal(CHOH)-Gly-OH”, the step yield was 26%.

For “Ac-Glu(OtBu)-Glu(OtBu)-Val-Val-Pro-nVal(CO)-Gly-Oallyl”, the step yield is given as 79%.

“Ac-Glu(OtBu)-Glu(OtBu)-Val-Val-Pro-nVal(CO)-Gly-allylamide”: the step yield stood at 74.4%.

The substance “Ac-Glu(OtBu)-Glu(OtBu)-Val-Val-Pro-nVal-(CO)-CONH2” had a step yield of 53%.

The substance “Ac-Glu-Glu-Val-Val-Pro-nVal(CO)-Carboxylic Acid” registered a step yield of 27.4%.

Take “Ac-Glu-Glu-Val-Val-Pro-nVal(CO)-Gly-Oallyl”: the step yield is 24%.

In the case of “Ac-Glu-Glu-Val-Val-Pro-nVal(CO)-Gly-allylamide”, the step yield was 28.5%.

Substance Ac-Glu-Glu-Val-Val-Pro-nVal-(CO)-CONH2 registered a step yield of 10%.

Still in this series, the particulars now being: whole synthesis.
Ac-E(OtBu)E(OtBu)VVP-OH yielded an isolated yield of 65%.
